Source: publication PMC7049810

T1: NlpI, soluble version lacking its membrane anchor (Escherichia coli) (UniProt P0AFB1)
T1 sequence (chain, where used as fl-NlpI in MST, NT647 RED-NHS dye on amines): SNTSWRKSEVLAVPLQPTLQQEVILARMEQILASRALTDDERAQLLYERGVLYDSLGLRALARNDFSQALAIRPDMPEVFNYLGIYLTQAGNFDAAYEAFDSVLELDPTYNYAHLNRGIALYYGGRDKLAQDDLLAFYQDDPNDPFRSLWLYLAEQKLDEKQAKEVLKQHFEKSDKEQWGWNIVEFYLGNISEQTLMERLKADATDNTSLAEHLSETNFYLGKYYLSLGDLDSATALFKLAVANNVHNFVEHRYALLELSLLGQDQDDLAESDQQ


Legend:
[1] = target: T1, NlpI, soluble version lacking its membrane anchor (Escherichia coli); experiment: affinity purification with mass spectrometry; NlpI coupled to Sepharose; detergent-solubilized E. coli membrane extract bound at high salt (400 mM NaCl), 6°C, eluted with 2 M NaCl; label-free LC-MS against a Tris-Sepharose control column; only the target purified
[2] = target: T1, NlpI, soluble version lacking its membrane anchor (Escherichia coli); experiment: affinity purification with mass spectrometry; NlpI coupled to Sepharose; detergent-solubilized E. coli membrane extract bound at low salt (50 mM NaCl), 6°C, eluted with 1 M NaCl; label-free LC-MS against a Tris-Sepharose control column; only the target purified

Row | Binder | binding [1] | binding [2]
1 | FtsK, endogenous in E. coli membrane extract (protein, UniProt P46889 1-1329) MSQEYIEDKEVTLTKLSSGRRLLEALLILIVLFAVWLMAALLSFNPSDPSWSQTAWHEPIHNLGGMPGAWLADTLFFIFGVMAYTIPVIIVGGCWFAWRHQSSDEYIDYFAVSLRIIGVLALILTSCGLAAINADDIWYFASGGVIGSLLSTTLQPLLHSSGGTIALLCVWAAGLTLFTGWSWVTIAEKLGGWILNILTFASNRTRRDDTWVDEDEYEDDEEYEDENHGKQHESRRARILRGALARRKRLAEKFINPMGRQTDAALFSGKRMDDDEEITYTARGVAADPDDVLFSGNRATQPEYDEYDPLLNGAPITEPVAVAAAATTATQSWAAPVEPVTQTPPVASVDVPPAQPTVAWQPVPGPQTGEPVIAPAPEGYPQQSQYAQPAVQYNEPLQQPVQPQQPYYAPAAEQPAQQPYYAPAPEQPVAGNAWQAEEQQSTFAPQSTYQTEQTYQQPAAQEPLYQQPQPVEQQPVVEPEPVVEETKPARPPLYYFEEVEEKRAREREQLAAWYQPIPEPVKEPEPIKSSLKAPSVAAVPPVEAAAAVSPLASGVKKATLATGAAATVAAPVFSLANSGGPRPQVKEGIGPQLPRPKRIRVPTRRELASYGIKLPSQRAAEEKAREAQRNQYDSGDQYNDDEIDAMQQDELARQFAQTQQQRYGEQYQHDVPVNAEDADAAAEAELARQFAQTQQQRYSGEQPAGANPFSLDDFEFSPMKALLDDGPHEPLFTPIVEPVQQPQQPVAPQQQYQQPQQPVPPQPQYQQPQQPVAPQPQYQQPQQPVAPQQQYQQPQQPVAPQQQYQQPQQPVAPQPQDTLLHPLLMRNGDSRPLHKPTTPLPSLDLLTPPPSEVEPVDTFALEQMARLVEARLADFRIKADVVNYSPGPVITRFELNLAPGVKAARISNLSRDLARSLSTVAVRVVEVIPGKPYVGLELPNKKRQTVYLREVLDNAKFRDNPSPLTVVLGKDIAGEPVVADLAKMPHLLVAGTTGSGKSVGVNAMILSMLYKAQPEDVRFIMIDPKMLELSVYEGIPHLLTEVVTDMKDAANALRWCVNEMERRYKLMSALGVRNLAGYNEKIAEADRMMRPIPDPYWKPGDSMDAQHPVLKKEPYIVVLVDEFADLMMTVGKKVEELIARLAQKARAAGIHLVLATQRPSVDVITGLIKANIPTRIAFTVSSKIDSRTILDQAGAESLLGMGDMLYSGPNSTLPVRVHGAFVRDQEVHAVVQDWKARGRPQYVDGITSDSESEGGAGGFDGAEELDPLFDQAVQFVTEKRKASISGVQRQFRIGYNRAARIIEQMEAQGIVSEQGHNGNREVLAPPPFD | binds | binds
2 | AmiA, endogenous in E. coli membrane extract (enzyme, UniProt P36548 35-289) KDELLKTSNGHSKPKAKKSGGKRVVVLDPGHGGIDTGAIGRNGSKEKHVVLAIAKNVRSILRNHGIDARLTRSGDTFIPLYDRVEIAHKHGADLFMSIHADGFTNPKAAGASVFALSNRGASSAMAKYLSERENRADEVAGKKATDKDHLLQQVLFDLVQTDTIKNSLTLGSHILKKIKPVHKLHSRNTEQAAFVVLKSPSVPSVLVETSFITNPEEERLLGTAAFRQKIATAIAEGVISYFHWFDNQKAHSKKR | binds | –
3 | AmiC, endogenous in E. coli membrane extract (enzyme, UniProt P63883 32-417) AVSQVVAVRVWPASSYTRVTVESNRQLKYKQFALSNPERVVVDIEDVNLNSVLKGMAAQIRADDPFIKSARVGQFDPQTVRMVFELKQNVKPQLFALAPVAGFKERLVMDLYPANAQDMQDPLLALLEDYNKGDLEKQVPPAQSGPQPGKAGRDRPIVIMLDPGHGGEDSGAVGKYKTREKDVVLQIARRLRSLIEKEGNMKVYMTRNEDIFIPLQVRVAKAQKQRADLFVSIHADAFTSRQPSGSSVFALSTKGATSTAAKYLAQTQNASDLIGGVSKSGDRYVDHTMFDMVQSLTIADSLKFGKAVLNKLGKINKLHKNQVEQAGFAVLKAPDIPSILVETAFISNVEEERKLKTATFQQEVAESILAGIKAYFADGATLARRG | – | binds
4 | MltC, endogenous in E. coli membrane extract (enzyme, UniProt P0C066 17-359) CSTTKKGDTYNEAWVKDTNGFDILMGQFAHNIENIWGFKEVVIAGPKDYVKYTDQYQTRSHINFDDGTITIETIAGTEPAAHLRRAIIKTLLMGDDPSSVDLYSDVDDITISKEPFLYGQVVDNTGQPIRWEGRASNFADYLLKNRLKSRSNGLRIIYSVTINMVPNHLDKRAHKYLGMVRQASRKYGVDESLILAIMQTESSFNPYAVSRSDALGLMQVVQHTAGKDVFRSQGKSGTPSRSFLFDPASNIDTGTAYLAMLNNVYLGGIDNPTSRRYAVITAYNGGAGSVLRVFSNDKIQAANIINTMTPGDVYQTLTTRHPSAESRRYLYKVNTAQKSYRRR | – | binds
5 | EnvC, endogenous in E. coli membrane extract (protein, UniProt P37690 35-419) DERDQLKSIQADIAAKERAVRQKQQQRASLLAQLKKQEEAISEATRKLRETQNTLNQLNKQIDEMNASIAKLEQQKAAQERSLAAQLDAAFRQGEHTGIQLILSGEESQRGQRLQAYFGYLNQARQETIAQLKQTREEVAMQRAELEEKQSEQQTLLYEQRAQQAKLTQALNERKKTLAGLESSIQQGQQQLSELRANESRLRNSIARAEAAAKARAEREAREAQAVRDRQKEATRKGTTYKPTESEKSLMSRTGGLGAPRGQAFWPVRGPTLHRYGEQLQGELRWKGMVIGASEGTEVKAIADGRVILADWLQGYGLVVVVEHGKGDMSLYGYNQSALVSVGSQVRAGQPIALVGSSGGQGRPSLYFEIRRQGQAVNPQPWLGR | binds | binds
6 | PBP1B, endogenous in E. coli membrane extract (enzyme, UniProt P02919 1-844) MAGNDREPIGRKGKPTRPVKQKVSRRRYEDDDDYDDYDDYEDEEPMPRKGKGKGKGRKPRGKRGWLWLLLKLAIVFAVLIAIYGVYLDQKIRSRIDGKVWQLPAAVYGRMVNLEPDMTISKNEMVKLLEATQYRQVSKMTRPGEFTVQANSIEMIRRPFDFPDSKEGQVRARLTFDGDHLATIVNMENNRQFGFFRLDPRLITMISSPNGEQRLFVPRSGFPDLLVDTLLATEDRHFYEHDGISLYSIGRAVLANLTAGRTVQGASTLTQQLVKNLFLSSERSYWRKANEAYMALIMDARYSKDRILELYMNEVYLGQSGDNEIRGFPLASLYYFGRPVEELSLDQQALLVGMVKGASIYNPWRNPKLALERRNLVLRLLQQQQIIDQELYDMLSARPLGVQPRGGVISPQPAFMQLVRQELQAKLGDKVKDLSGVKIFTTFDSVAQDAAEKAAVEGIPALKKQRKLSDLETAIVVVDRFSGEVRAMVGGSEPQFAGYNRAMQARRSIGSLAKPATYLTALSQPKIYRLNTWIADAPIALRQPNGQVWSPQNDDRRYSESGRVMLVDALTRSMNVPTVNLGMALGLPAVTETWIKLGVPKDQLHPVPAMLLGALNLTPIEVAQAFQTIASGGNRAPLSALRSVIAEDGKVLYQSFPQAERAVPAQAAYLTLWTMQQVVQRGTGRQLGAKYPNLHLAGKTGTTNNNVDTWFAGIDGSTVTITWVGRDNNQPTKLYGASGAMSIYQRYLANQTPTPLNLVPPEDIADMGVDYDGNFVCSGGMRILPVWTSDPQSLCQQSEMQQQPSGNPFDQSSQPQQQPQQQPAQQEQKDSDGVAGWIKDMFGSN | – | binds

More lines, now with the values ahead:

Row | binding [1] | binding [2] | Binder
7 | binds | binds | PBP3, endogenous in E. coli membrane extract (enzyme, UniProt P0AD68 1-577) MKAAAKTQKPKRQEEHANFISWRFALLCGCILLALAFLLGRVAWLQVISPDMLVKEGDMRSLRVQQVSTSRGMITDRSGRPLAVSVPVKAIWADPKEVHDAGGISVGDRWKALANALNIPLDQLSARINANPKGRFIYLARQVNPDMADYIKKLKLPGIHLREESRRYYPSGEVTAHLIGFTNVDSQGIEGVEKSFDKWLTGQPGERIVRKDRYGRVIEDISSTDSQAAHNLALSIDERLQALVYRELNNAVAFNKAESGSAVLVDVNTGEVLAMANSPSYNPNNLSGTPKEAMRNRTITDVFEPGSTVKPMVVMTALQRGVVRENSVLNTIPYRINGHEIKDVARYSELTLTGVLQKSSNVGVSKLALAMPSSALVDTYSRFGLGKATNLGLVGERSGLYPQKQRWSDIERATFSFGYGLMVTPLQLARVYATIGSYGIYRPLSITKVDPPVPGERVFPESIVRTVVHMMESVALPGGGGVKAAIKGYRIAIKTGTAKKVGPDGRYINKYIAYTAGVAPASQPRFALVVVINDPQAGKYYGGAVSAPVFGAIMGGVLRTMNIEPDALTTGDKNEFV
8 | – | binds | PBP7, endogenous in E. coli membrane extract (enzyme, UniProt P0AFI5 26-310) KTAAATTASQPEIASGSAMIVDLNTNKVIYSNHPDLVRPIASISKLMTAMVVLDARLPLDEKLKVDISQTPEMKGVYSRVRLNSEISRKDMLLLALMSSENRAAASLAHHYPGGYKAFIKAMNAKAKSLGMNNTRFVEPTGLSVHNVSTARDLTKLLIASKQYPLIGQLSTTREDMATFSNPTYTLPFRNTNHLVYRDNWNIQLTKTGFTNAAGHCLVMRTVINNKPVALVVMDAFGKYTHFADASRLRTWIETGKVMPVPAAALSYKKQKAAQMAAAGQTAQND
9 | – | binds | PBP1C, endogenous in E. coli membrane extract (enzyme, UniProt P76577 1-770) MPRLLTKRGCWITLAAAPFLLFLAAWGADKLWPLPLHEVNPARVVVAQDGTPLWRFADADGIWRYPVTIEDVSPRYLEALINYEDRWFWKHPGVNPFSVARAAWQDLTSGRVISGGSTLTMQVARLLDPHPKTFGGKIRQLWRALQLEWHLSKREILTLYLNRAPFGGTLQGIGAASWAYLGKSPANLSYSEAAMLAVLPQAPSRLRPDRWPERAEAARNKVLERMAVQGVWSREQVKESREEPIWLAPRQMPQLAPLFSRMMLGKSKSDKITTTLDAGLQRRLEELAQNWKGRLPPRSSLAMIVVDHTDMRVRGWVGSVDLNDDSRFGHVDMVNSIRSPGSVLKPFVYGLALDEGLIHPASLLQDVPRRTGDYRPGNFDSGFHGPISMSEALVRSLNLPAVQVLEAYGPKRFAAKLRNVGLPLYLPNGAAPNLSLILGGAGAKLEDMAAAYTAFARHGKAGKLRLQPDDPLLERPLMSSGAAWIIRRIMADEAQPLPDSALPRVAPLAWKTGTSYGYRDAWAIGVNARYVIGIWTGRPDGTPVVGQFGFASAVPLLNQVNNILLSRSANLPEDPRPNSVTRGVICWPGGQSLPEGDGNCRRRLATWLLDGSQPPTLLLPEQEGINGIRFPIWLDENGKRVAADCPQARQEMINVWPLPLEPWLPASERRAVRLPPASTSCPPYGHDAQLPLQLTGVRDGAIIKRLPGAAEATLPLQSSGGAGERWWFLNGEPLTERGRNVTLHLTDKGDYQLLVMDDVGQIATVKFVMQ

These are yes or no findings as the source states them, for the method shown. Binding seen in cells or lysates may run through a third protein. A yes stands for co-enrichment or nearness to the bait. Other partners may have been found.
